Results reported in paper PMC12169679 (Journal of Medicinal Chemistry, 2025).

Settings: PAMPA

CC(C)NCC(O)COc1ccc(CC(N)=O)cc1 (stereo not shown) [Atenolol, reference compound]
prediction of CNS penetration: CNS−
